Data reported in the supplement of paper PMC4635364.
Counter-ions that a name gives are not always drawn. The list shows a part of the results. This data set is noisy: repeats of one test often differ as much as different tests do.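 Human fetal ventral-midbrain neural progenitor line ReNCell VM, differentiated without mitogens. Images stained for doublecortin (early neurons) or tyrosine hydroxylase (dopaminergic neurons) were scored by blinded raters against untreated wells (0 = no change). Repeats and both raters were averaged, and compounds averaging 2 or higher were picked as hits for retesting.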

What was measured:
ReNCell VM [1] = assay: neuronal differentiation score (DCX+ cell fraction vs untreated, manual image score) (score (-3 to 3)); higher = more neuronal differentiation; settings: 2 uM, 2 weeks
ReNCell VM [2] = assay: dopaminergic neuron differentiation score (TH+ cell fraction vs untreated, manual image score) (score (0 to 3)); higher = more TH+ dopaminergic neuron differentiation; settings: 2 uM, 4 weeks, BDNF 10 ng/ml + GDNF 10 ng/ml

COc1ccc(-c2cc(=O)c3c(O)cc(O[C@@H]4O[C@H](CO[C@@H]5O[C@@H](C)[C@H](O)[C@@H](O)[C@H]5O)[C@@H](O)[C@H](O)[C@H]4O)cc3o2)cc1O [Diosmin]
neuronal differentiation score (ReNCell VM [1]; library: Prestwick): inactive: 0 | dopaminergic neuron differentiation score (ReNCell VM [2]; library: Prestwick): inactive: 0

CC[N+](CC)(CC)CCOc1cccc(OCC[N+](CC)(CC)CC)c1OCC[N+](CC)(CC)CC
neuronal differentiation score (ReNCell VM [1]; library: Spectrum): inactive: 0 | dopaminergic neuron differentiation score (ReNCell VM [2]; library: Spectrum): inactive: 0

Cc1cc(O)cc(C)c1Cl
neuronal differentiation score (ReNCell VM [1]; library: Spectrum): inactive: 0 | dopaminergic neuron differentiation score (ReNCell VM [2]; library: Spectrum): inactive: 0

COC(=O)C1=CO[C@@H](O[C@@H]2O[C@H](CO)[C@@H](O)[C@H](O)[C@H]2O)[C@H]2[C@@H]1C(=O)C[C@@H]2C [verbenalin]
neuronal differentiation score (ReNCell VM [1]; library: Natural): inactive: 0 | dopaminergic neuron differentiation score (ReNCell VM [2]; library: Natural): inactive: 0

COc1ccc2[nH]cc(CCNC(C)=O)c2c1
neuronal differentiation score (ReNCell VM [1]; library: Spectrum): inactive: 0 | dopaminergic neuron differentiation score (ReNCell VM [2]; library: Spectrum): inactive: 0

CCC(NC(C)C)C(O)c1ccc(O)c(O)c1 (stereo unspecified)
neuronal differentiation score (ReNCell VM [1]; library: Spectrum): inactive: 0 | dopaminergic neuron differentiation score (ReNCell VM [2]; library: Spectrum): inactive: 0

O=C(CCCCC(=O)Nc1c(I)cc(I)c(C(=O)O)c1I)Nc1c(I)cc(I)c(C(=O)O)c1I [Iodipamide]
neuronal differentiation score (ReNCell VM [1]; library: Prestwick): inactive: 0 | dopaminergic neuron differentiation score (ReNCell VM [2]; library: Prestwick): inactive: 0

c1ccc(C(NCCNC(c2ccccc2)c2ccccc2)c2ccccc2)cc1
neuronal differentiation score (ReNCell VM [1]; library: LOPAC): inactive: 0 | dopaminergic neuron differentiation score (ReNCell VM [2]; library: LOPAC): inactive: 0

COc1ccc(C(=O)/C=C/c2ccccc2)cc1
neuronal differentiation score (ReNCell VM [1]; library: Spectrum): inactive: 0 | dopaminergic neuron differentiation score (ReNCell VM [2]; library: Spectrum): inactive: 0

CCc1cc(Cl)c(OC)c(C(=O)NC[C@@H]2CCCN2CC)c1O [Eticlopride hydrochloride]
neuronal differentiation score (ReNCell VM [1]; library: Tocriscreen): inactive: 0 | dopaminergic neuron differentiation score (ReNCell VM [2]; library: Tocriscreen): inactive: 0

CCc1ccc2c(-c3cccc(Cl)c3)nc(=O)n(CC)c2n1
neuronal differentiation score (ReNCell VM [1]; library: Tocriscreen): inactive: 0 | dopaminergic neuron differentiation score (ReNCell VM [2]; library: Tocriscreen): inactive: 0

CCCCCN(CCCCC)C(=O)C(CCC(=O)O)NC(=O)c1ccc(Cl)c(Cl)c1 (stereo unspecified) [Lorglumide sodium salt]
neuronal differentiation score (ReNCell VM [1]; library: Prestwick): inactive: 0 | dopaminergic neuron differentiation score (ReNCell VM [2]; library: Prestwick): inactive: 0

CC(=O)O[C@@H]1C[C@H]2C(C)(C)C(=O)C=C[C@]2(C)[C@H]2CC[C@@]3(C)[C@H](c4ccoc4)OC(=O)[C@H]4O[C@]43[C@@]21C
neuronal differentiation score (ReNCell VM [1]; library: Spectrum): inactive: 0 | dopaminergic neuron differentiation score (ReNCell VM [2]; library: Spectrum): inactive: 0

COc1cc2nc(N3CCN(C(=O)c4ccco4)CC3)nc(N)c2cc1OC
neuronal differentiation score (ReNCell VM [1]; library: Spectrum): inactive: 0 | dopaminergic neuron differentiation score (ReNCell VM [2]; library: Spectrum): inactive: 0

C[C@]12C(=O)C=C(O)C=C1CC[C@H]1[C@@H]3C[C@@H](O)C(O)(C(=O)CO)[C@@]3(C)C[C@H](O)[C@@]12F (stereo partly specified) [Triamcinolone alcohol]
neuronal differentiation score (ReNCell VM [1]; library: Phytochemical): inactive: 0 | dopaminergic neuron differentiation score (ReNCell VM [2]; library: Phytochemical): inactive: 0

O=C1C2CC3CC1CC(O)(C3)C2
neuronal differentiation score (ReNCell VM [1]; library: Spectrum): inactive: 0 | dopaminergic neuron differentiation score (ReNCell VM [2]; library: Spectrum): inactive: 0

CN(C)c1cc(NC(=O)CNC(C)(C)C)c(O)c2c1C[C@H]1C[C@H]3[C@H](N(C)C)C(O)=C(C(N)=O)C(=O)[C@@]3(O)C(O)=C1C2=O
neuronal differentiation score (ReNCell VM [1]; library: Spectrum): inactive: 0 | dopaminergic neuron differentiation score (ReNCell VM [2]; library: Spectrum): inactive: 0

O=C1OC2(c3ccc(O)cc3Oc3cc(O)ccc32)c2ccccc21
neuronal differentiation score (ReNCell VM [1]; library: Spectrum): inactive: 0 | dopaminergic neuron differentiation score (ReNCell VM [2]; library: Spectrum): inactive: 0

Cc1[nH]c(=O)c(C#N)cc1-c1ccncc1
neuronal differentiation score (ReNCell VM [1]; library: Spectrum): inactive: 1 | dopaminergic neuron differentiation score (ReNCell VM [2]; library: Spectrum): inactive: 0

C[C@]12CCC3c4ccc(OC(=O)c5ccccc5)cc4CCC3C1CCC2=O (stereo partly specified)
neuronal differentiation score (ReNCell VM [1]; library: Spectrum): inactive: 0 | dopaminergic neuron differentiation score (ReNCell VM [2]; library: Spectrum): inactive: 0

CC(=O)OC[C@@]1(O)C[C@@]23CC[C@@H]4c5ccoc5CC[C@@]4(C)[C@@H]2CC[C@@H]1C3 [cafestol acetate]
neuronal differentiation score (ReNCell VM [1]; library: Natural): inactive: 0 | dopaminergic neuron differentiation score (ReNCell VM [2]; library: Natural): inactive: 0

Cn1c2c(c(=O)c3ccccc31)CC(O)C(C)(C)O2 (stereo unspecified) [ribalinine]
neuronal differentiation score (ReNCell VM [1]; library: Natural): inactive: -1 | dopaminergic neuron differentiation score (ReNCell VM [2]; library: Natural): inactive: 0

COc1ccc2[nH]c(C(=O)c3ccccc3)cc2c1
neuronal differentiation score (ReNCell VM [1]; library: Tocriscreen): inactive: 0 | dopaminergic neuron differentiation score (ReNCell VM [2]; library: Tocriscreen): inactive: 0
